Literature values, collected in patent US20160074401A1, “COMPOSITIONS AND METHODS UTILIZING PHOSPHODIESTERASE INHIBITORS TO TREAT BLAST-INDUCED TINNITUS AND/OR HEARING LOSS” (WAYNE STATE UNIVERSITY, priority 2013, published 2016).
At least one compound was matched to its structure with a doubt left.

System: chronic tinnitus
Details: clinical study (Mazurek et al. 2009); cited from earlier work

For `CCCc1nc(C)c2c(=O)[nH]c(-c3cc(S(=O)(=O)N4CCN(CC)CC4)ccc3OCC)nn12` [vardenafil], the “Therapeutic effect on chronic tinnitus” value is listed as “no therapeutic effect”.
